No constants are given. Whether binding was seen depends on the method and setting. In cells and extracts the contact can be indirect. Where a sequence is shown, tags or fusion partners need not be part of it.
Target: T1, Xenopus Dvl2 (Xdsh), full-length, myc-tagged (Xenopus) (UniProt P51142)
T1 sequence: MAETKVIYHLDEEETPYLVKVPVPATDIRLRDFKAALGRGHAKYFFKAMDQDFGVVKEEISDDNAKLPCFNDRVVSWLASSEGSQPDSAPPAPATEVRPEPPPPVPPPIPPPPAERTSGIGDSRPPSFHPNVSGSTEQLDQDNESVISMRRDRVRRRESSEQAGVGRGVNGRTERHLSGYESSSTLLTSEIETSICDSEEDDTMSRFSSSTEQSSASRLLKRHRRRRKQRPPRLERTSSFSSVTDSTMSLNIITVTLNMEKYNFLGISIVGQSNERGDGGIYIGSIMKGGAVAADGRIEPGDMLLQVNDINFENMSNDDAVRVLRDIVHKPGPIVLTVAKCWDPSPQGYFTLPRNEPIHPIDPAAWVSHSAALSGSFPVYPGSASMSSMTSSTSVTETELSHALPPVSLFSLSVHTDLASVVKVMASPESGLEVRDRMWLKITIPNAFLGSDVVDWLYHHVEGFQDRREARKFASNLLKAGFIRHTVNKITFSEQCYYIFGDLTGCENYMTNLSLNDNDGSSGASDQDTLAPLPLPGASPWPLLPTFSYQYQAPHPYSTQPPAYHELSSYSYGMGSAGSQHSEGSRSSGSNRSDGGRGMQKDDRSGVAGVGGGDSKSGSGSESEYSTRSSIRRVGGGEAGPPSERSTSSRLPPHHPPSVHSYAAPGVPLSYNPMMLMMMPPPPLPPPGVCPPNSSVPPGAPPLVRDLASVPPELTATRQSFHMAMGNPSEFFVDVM
Test: co-IP; HEK293T cells transfected for 24 h; lysis in 150 mM NaCl, 50 mM Tris-HCl pH 7.5, 1% Triton X-100; precipitation with anti-myc agarose beads, 2 h at 4 °C; five washes with 500 mM NaCl; blots with anti-myc or anti-Flag

**Q.** With “Flag-Lurap1ΔC (zebrafish Lurap1 lacking the C-terminal PDZ-binding motif) (domain or fragment)” as the substance, how does the binding read?
**A.** no binding
